Measurements as given in publication PMC11695632.
No constants are given. Whether binding was seen depends on the method and setting. Binding seen in cells or lysates may run through a third protein. These calls come from enrichment with a bait or labelling near it, and not all partners need be listed. For some assays here: Sequences can lack the tags named with a protein.

Columns and labels:
[1] = target: T1, Flag-tagged pantothenate kinase 4 (PanK4), wild type (mouse) (UniProt Q80YV4); assay: affinity purification with mass spectrometry; anti-flag coated agarose beads, lysates (400 µg, n = 4) of TA muscle injected with rAAV6-PanK4, overnight at 4 °C; washed twice with 120 mM HEPES, 240 mM NaCl pH 7.4; eluted with laemmli buffer; pulldown from PanK4 KO muscle as negative control
T1 sequence: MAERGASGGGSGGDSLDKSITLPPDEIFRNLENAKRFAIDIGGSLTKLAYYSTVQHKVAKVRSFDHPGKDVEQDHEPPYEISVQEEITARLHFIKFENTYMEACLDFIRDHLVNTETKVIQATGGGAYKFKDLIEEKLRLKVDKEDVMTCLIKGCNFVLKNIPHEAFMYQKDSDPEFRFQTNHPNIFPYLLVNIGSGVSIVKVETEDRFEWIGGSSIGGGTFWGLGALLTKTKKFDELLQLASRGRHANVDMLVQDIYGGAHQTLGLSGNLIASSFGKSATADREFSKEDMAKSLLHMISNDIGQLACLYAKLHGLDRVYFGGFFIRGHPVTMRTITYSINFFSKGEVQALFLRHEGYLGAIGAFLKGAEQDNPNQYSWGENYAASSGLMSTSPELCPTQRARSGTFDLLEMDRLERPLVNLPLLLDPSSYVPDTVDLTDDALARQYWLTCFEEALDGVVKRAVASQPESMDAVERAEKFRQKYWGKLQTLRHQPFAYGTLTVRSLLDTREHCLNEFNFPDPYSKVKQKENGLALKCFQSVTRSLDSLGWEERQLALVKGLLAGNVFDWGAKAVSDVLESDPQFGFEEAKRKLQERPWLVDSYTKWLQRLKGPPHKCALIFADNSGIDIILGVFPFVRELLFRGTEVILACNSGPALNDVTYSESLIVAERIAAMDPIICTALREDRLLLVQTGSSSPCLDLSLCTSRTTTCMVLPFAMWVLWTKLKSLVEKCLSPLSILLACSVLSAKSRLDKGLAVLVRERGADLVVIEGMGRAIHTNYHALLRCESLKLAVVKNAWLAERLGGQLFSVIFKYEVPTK

[2] = target: T2, pantothenate kinase 4 (PanK4), endogenous (mouse (endogenous in C57BL/6J TA muscle)) (UniProt Q80YV4); assay: affinity purification with mass spectrometry; anti-PanK4 antibody on protein G agarose beads, lysates (400 µg, n = 2) of TA muscle injected with control rAAV6-MCS, overnight at 4 °C; washed twice with 120 mM HEPES, 240 mM NaCl pH 7.4; eluted with laemmli buffer; pulldown from PanK4 KO muscle as negative control
T2 sequence: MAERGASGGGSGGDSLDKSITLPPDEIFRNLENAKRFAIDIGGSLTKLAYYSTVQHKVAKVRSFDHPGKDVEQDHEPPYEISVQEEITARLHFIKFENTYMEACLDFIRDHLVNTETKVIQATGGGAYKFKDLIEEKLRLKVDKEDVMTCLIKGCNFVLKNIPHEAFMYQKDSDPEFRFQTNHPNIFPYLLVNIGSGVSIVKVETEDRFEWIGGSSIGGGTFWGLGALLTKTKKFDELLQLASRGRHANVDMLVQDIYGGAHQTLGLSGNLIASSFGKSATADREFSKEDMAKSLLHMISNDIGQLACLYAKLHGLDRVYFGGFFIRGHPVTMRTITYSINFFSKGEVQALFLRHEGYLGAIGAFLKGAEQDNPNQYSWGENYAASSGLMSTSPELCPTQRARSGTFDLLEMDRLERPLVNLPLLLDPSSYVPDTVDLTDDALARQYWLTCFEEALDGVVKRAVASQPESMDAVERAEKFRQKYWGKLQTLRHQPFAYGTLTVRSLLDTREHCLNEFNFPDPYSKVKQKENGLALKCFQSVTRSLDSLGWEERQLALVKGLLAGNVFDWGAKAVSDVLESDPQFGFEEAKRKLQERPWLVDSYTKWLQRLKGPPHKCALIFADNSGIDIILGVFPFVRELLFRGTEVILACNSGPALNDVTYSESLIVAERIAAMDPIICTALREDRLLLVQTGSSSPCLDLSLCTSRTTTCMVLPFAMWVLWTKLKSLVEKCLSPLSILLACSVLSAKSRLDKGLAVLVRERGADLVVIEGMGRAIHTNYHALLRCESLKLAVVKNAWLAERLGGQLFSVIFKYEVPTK

binding [1]: binds
binding [2]: binds
B1: 3-hydroxybutyrate dehydrogenase 1 (BDH1) (enzyme, UniProt Q80XN0 47-343)
chain: ASQADAASGKAILITGCDSGFGFSLAKHLHSKGFLVFAGCLMKDKGDAGVKELDSLKSDRLRTIQLNVCNSEEVEKAVETIRSGLKDPEKGMWGLVNNAGISTFGEVEFTSMETYKEVAEVNLWGTVRTTKSFLPLLRRAKGRVVNISSMLGRMANPARSPYCITKFGIEAFSDCLRYEMHPLGVKVSVVEPGNFIAATSLYSPERIQAIAKKMWDDLPEVVRKDYGRKYFDEKIAKMETYCNSGSTDTSSVINAVTHALTAATPYTRYHPMDYYWWLRMQIMTHFPGAISDKIYIH
